Sequences and labels used below:
T1: AtMTR4-GFP (Arabidopsis thaliana) (UniProt Q9XIF2)
T1 sequence: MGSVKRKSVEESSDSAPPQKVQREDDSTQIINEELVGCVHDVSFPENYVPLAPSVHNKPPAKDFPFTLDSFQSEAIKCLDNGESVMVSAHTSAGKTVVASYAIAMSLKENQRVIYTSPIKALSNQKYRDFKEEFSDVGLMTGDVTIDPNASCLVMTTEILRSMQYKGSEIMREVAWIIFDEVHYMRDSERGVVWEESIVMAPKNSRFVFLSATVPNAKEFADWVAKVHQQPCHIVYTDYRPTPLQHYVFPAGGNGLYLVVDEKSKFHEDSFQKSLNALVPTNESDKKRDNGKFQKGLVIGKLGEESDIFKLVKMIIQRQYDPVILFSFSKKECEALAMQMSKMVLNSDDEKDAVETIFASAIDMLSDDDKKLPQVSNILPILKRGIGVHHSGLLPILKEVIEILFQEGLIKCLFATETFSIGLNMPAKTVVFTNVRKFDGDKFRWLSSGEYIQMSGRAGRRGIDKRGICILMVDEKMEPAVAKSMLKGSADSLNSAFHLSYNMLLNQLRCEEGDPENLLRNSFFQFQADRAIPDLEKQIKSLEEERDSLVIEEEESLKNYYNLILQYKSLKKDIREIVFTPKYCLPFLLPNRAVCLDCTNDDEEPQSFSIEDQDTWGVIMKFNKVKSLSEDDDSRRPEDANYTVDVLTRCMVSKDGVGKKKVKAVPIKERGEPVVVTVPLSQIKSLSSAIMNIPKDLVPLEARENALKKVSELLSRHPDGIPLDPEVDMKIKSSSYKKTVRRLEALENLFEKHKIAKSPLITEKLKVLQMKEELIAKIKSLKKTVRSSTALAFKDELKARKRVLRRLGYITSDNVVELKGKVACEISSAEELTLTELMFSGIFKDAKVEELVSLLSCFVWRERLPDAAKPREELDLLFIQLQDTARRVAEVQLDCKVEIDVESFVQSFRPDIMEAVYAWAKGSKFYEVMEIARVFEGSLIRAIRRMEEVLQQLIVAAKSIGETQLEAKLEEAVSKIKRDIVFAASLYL

Chains of the proteins cited; added tags and fusions are not shown. Lines headed by an entry give the natural chain unless they say otherwise; changes in a name come on top.
UniProt Q9M0V4: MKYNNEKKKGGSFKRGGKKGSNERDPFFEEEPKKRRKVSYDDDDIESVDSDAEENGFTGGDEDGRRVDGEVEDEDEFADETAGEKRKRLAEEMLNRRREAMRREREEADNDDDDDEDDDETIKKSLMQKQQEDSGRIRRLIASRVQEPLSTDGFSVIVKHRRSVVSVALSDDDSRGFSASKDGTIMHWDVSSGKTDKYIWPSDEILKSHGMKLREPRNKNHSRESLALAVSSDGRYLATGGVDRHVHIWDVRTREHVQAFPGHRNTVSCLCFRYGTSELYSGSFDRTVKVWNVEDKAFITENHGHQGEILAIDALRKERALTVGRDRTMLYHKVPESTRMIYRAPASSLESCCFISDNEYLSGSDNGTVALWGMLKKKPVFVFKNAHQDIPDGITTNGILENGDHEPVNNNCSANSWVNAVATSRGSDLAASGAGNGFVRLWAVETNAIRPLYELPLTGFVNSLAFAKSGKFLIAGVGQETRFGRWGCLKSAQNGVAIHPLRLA
UniProt Q9S826: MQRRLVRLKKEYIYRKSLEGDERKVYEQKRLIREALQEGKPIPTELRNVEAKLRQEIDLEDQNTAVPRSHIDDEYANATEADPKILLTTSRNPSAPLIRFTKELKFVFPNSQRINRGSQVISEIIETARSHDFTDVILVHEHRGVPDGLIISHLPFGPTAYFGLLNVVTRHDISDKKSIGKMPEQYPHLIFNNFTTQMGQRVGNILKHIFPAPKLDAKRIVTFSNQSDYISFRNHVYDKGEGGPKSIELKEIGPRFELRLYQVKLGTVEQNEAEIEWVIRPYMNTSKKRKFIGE
UniProt Q9SI58: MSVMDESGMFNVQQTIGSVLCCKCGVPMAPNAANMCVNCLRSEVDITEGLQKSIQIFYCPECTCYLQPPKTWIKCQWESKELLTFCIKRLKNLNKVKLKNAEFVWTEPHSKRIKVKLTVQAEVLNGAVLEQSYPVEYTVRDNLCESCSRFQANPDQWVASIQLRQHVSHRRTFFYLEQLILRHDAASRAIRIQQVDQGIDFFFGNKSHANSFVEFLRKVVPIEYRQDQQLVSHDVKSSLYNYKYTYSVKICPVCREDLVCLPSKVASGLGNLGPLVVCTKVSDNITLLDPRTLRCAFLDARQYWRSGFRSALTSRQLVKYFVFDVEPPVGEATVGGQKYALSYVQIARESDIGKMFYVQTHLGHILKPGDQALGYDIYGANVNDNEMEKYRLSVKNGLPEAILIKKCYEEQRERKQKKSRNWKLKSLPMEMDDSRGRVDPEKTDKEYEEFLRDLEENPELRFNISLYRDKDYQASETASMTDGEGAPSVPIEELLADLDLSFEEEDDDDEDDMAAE
UniProt Q9M1J8: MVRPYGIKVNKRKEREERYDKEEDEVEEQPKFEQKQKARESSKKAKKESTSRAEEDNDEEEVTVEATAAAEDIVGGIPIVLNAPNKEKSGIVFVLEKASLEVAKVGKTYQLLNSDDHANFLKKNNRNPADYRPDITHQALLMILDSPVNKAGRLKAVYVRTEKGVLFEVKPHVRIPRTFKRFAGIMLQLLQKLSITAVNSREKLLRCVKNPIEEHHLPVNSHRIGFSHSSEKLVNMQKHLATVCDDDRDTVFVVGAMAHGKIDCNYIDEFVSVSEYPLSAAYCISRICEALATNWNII
UniProt Q9C8Z4: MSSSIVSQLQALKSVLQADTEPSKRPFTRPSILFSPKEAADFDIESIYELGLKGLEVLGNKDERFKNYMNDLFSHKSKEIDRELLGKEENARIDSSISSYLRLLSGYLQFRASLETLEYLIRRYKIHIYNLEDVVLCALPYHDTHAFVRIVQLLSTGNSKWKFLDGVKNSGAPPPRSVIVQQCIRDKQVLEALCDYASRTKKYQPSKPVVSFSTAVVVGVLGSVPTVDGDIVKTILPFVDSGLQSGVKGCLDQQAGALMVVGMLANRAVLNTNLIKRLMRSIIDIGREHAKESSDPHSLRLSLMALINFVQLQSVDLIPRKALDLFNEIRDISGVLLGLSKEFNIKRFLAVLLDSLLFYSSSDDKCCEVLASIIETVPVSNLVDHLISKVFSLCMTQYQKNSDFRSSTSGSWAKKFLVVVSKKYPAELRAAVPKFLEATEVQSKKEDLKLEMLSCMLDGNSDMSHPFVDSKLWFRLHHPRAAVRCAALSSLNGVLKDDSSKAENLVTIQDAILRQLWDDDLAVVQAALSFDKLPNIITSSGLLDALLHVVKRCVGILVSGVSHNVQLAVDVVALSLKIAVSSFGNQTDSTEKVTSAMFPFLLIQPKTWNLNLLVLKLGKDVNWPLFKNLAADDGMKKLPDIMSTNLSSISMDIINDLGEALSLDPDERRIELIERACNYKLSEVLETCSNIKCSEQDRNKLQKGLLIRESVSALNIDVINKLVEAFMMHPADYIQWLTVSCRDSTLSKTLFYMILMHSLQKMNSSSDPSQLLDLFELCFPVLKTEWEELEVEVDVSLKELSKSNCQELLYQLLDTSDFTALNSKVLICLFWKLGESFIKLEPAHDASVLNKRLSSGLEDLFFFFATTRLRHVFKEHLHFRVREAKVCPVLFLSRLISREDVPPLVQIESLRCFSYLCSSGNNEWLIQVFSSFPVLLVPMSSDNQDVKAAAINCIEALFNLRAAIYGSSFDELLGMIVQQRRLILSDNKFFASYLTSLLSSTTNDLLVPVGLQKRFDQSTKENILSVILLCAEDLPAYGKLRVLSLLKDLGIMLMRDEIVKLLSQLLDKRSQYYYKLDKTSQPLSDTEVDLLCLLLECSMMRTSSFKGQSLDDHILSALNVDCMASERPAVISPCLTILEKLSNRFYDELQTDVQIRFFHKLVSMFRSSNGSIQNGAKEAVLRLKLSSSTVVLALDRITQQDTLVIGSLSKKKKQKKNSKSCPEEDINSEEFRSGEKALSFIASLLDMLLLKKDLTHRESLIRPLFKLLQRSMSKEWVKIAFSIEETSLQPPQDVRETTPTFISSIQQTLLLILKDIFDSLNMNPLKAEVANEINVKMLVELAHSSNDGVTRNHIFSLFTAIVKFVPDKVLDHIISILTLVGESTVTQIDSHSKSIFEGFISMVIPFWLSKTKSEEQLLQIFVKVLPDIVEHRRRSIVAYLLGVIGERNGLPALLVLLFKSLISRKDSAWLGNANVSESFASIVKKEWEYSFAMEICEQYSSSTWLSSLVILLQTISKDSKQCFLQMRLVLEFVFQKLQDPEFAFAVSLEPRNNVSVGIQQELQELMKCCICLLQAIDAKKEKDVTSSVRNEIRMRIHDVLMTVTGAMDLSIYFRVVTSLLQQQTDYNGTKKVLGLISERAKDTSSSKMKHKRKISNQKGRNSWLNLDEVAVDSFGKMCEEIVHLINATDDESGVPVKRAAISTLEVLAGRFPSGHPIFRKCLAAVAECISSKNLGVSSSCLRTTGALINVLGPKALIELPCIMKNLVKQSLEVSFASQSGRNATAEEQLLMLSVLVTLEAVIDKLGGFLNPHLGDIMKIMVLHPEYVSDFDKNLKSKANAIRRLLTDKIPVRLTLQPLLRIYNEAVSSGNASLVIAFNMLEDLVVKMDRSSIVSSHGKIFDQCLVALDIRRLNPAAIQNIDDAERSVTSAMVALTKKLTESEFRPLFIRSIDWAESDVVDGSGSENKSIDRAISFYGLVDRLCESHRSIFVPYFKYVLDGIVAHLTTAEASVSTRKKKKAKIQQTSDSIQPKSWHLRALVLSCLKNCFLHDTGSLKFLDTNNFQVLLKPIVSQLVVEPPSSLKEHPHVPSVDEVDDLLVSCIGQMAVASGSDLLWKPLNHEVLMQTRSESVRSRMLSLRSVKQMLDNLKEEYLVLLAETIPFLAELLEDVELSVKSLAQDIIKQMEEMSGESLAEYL
UniProt F4JL99: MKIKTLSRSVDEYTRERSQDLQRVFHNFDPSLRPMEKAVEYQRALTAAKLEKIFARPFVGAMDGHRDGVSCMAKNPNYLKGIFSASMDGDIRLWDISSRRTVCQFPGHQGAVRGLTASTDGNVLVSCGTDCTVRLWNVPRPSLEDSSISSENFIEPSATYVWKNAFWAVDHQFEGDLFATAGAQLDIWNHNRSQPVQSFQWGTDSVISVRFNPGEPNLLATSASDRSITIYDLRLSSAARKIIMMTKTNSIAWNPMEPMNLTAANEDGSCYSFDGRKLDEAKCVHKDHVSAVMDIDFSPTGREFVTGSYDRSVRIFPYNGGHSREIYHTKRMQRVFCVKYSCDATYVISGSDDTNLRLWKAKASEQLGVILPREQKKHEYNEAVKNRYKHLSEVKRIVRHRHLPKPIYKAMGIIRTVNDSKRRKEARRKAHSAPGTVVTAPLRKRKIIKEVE
UniProt Q9LPP3: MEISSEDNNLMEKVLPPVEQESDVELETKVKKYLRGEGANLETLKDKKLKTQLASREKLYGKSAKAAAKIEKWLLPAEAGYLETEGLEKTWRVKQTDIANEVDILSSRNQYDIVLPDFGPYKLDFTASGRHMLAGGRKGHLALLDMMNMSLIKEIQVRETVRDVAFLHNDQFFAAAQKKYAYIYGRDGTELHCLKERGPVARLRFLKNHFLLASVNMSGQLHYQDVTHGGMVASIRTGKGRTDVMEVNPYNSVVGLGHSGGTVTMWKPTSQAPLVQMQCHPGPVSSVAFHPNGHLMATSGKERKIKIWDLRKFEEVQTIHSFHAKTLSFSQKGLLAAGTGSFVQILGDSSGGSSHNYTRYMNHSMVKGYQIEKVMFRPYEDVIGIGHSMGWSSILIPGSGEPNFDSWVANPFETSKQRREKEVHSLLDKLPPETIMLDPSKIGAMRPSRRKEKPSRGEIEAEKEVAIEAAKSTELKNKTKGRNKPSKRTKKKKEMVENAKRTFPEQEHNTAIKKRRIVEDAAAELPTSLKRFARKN
UniProt F4KCY1: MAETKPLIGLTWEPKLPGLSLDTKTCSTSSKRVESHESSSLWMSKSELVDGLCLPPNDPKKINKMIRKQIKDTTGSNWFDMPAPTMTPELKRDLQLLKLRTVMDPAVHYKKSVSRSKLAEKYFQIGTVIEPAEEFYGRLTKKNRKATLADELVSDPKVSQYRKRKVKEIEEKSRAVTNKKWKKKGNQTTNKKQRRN

B1: TORMOZ EMBRYO … (protein, UniProt Q9LFE2 1-876)
chain: MAPHSLKKNYRCSRSLKQFYGGGPFIVSSDGSFIACACGDVINIVDSTDSSVKSTIEGESDTLTALALSPDDKLLFSAGHSRQIRVWDLETLKCIRSWKGHEGPVMGMACHASGGLLATAGADRKVLVWDVDGGFCTHYFRGHKGVVSSILFHPDSNKNILISGSDDATVRVWDLNAKNTEKKCLAIMEKHFSAVTSIALSEDGLTLFSAGRDKVVNLWDLHDYSCKATVATYEVLEAVTTVSSGTPFASFVASLDQKKSKKKESDSQATYFITVGERGVVRIWKSEGSICLYEQKSSDITVSSDDEESKRGFTAAAMLPSDHGLLCVTADQQFFFYSVVENVEETELVLSKRLVGYNEEIADMKFLGDEEQFLAVATNLEEVRVYDVATMSCSYVLAGHKEVVLSLDTCVSSSGNVLIVTGSKDKTVRLWNATSKSCIGVGTGHNGDILAVAFAKKSFSFFVSGSGDRTLKVWSLDGISEDSEEPINLKTRSVVAAHDKDINSVAVARNDSLVCTGSEDRTASIWRLPDLVHVVTLKGHKRRIFSVEFSTVDQCVMTASGDKTVKIWAISDGSCLKTFEGHTSSVLRASFITDGTQFVSCGADGLLKLWNVNTSECIATYDQHEDKVWALAVGKKTEMIATGGGDAVINLWHDSTASDKEDDFRKEEEAILRGQELENAVLDAEYTKAIRLAFELCRPHKVFELFSGLCRKRDSDEQIVKALQGLEKEEFRLLFEYVREWNTKPKLCHIAQFVLYKTFNILPPTEIVQVKGIGELLEGLIPYSQRHFSRIDRFVRSSFLLDYTLGEMSVIDPETVETEYPKDEKKKEKDVIAAMEQDTDELKQETPSRKRKSQKSKGKSNKKRLIAEAQGSVIAV
B2: POPCORN (protein, UniProt Q8RXU6 1-815)
chain: MLEYRCSSVDWKPSPVVALANSSDDSQVAAAREDGSLEIWLVSPGAVGWHCQLTIHGDPNSRISSLAWCCSPSIGLPSGRLFSSSIDGSISEWDLFDLKQKIVLESIGISIWQMALAPISGFSSDVEGIKNGYLSEKSNDEEEIGSEEDGSDSDEFHEKSEEEIDRILAAACDDGCVRLYRISNLEKLTYYRSLPRVSGRALSVTWSPDAKRIFSGSSDGLIRCWDATSCHEVYRITAGLGGLGSSSEICVWSLLSLRCSVLVSGDSTGTVQFWDSEHGTLLEAHSNHKGDVNTLAAAPSHNRVFSAGADGQVILYKLSGSTNGSQDLKPSSSQKWDYIGYVKAHTHDIRALTVAVPISREDPFPDDILPDKASRKHRKKGKPVDFTYHKWAHLGVPMLISAGDDAKLFAYSIQEFTKFSPHDICPAPQRIPMQMVHNSMFNKTSLLLVQGISTLDILRLNISSDSSGRASTKSLVRVKSRDARKIICSAISNTGSHFAYSDQIGPSLFELKKNEFTKCPWSVSRRRLPELPFAHSMIFSSDCSRLIIAGHDRRIYTIDISSLELVYAFTPSREEHEGEAPTPKEPPITKLFTSSDGQWLAAINCFGDIYVFNLETQRQHWFISRLDGASVTAAGFHPWNNNALVISTSSNQVFAFDVEARQLGKWSLLNTYVLPKRYQEFPGEVLGLSFSPSPNSSSVIVYSSRAKCLIDFGKPVEEDEEYDLPNGNLSKTLEGKLVNLGLKKGKGTNRKRRLDEYQLEGKSNERKNFEILPSNHPVLFVGHLSKNSILVIEKPWMDVVKSLDNQPVDRHIFGT
B3: unknown protein, DUF1726 (AT3G57940) (protein, UniProt Q9M2Q4 1-1028)
chain: MRKKVDERIRTLIENGVKLRHRSMFVIIGDKSRDQIVNLHHMLSKAVIKCNPSVLWCYKDKLDISSHKQKRSKQLKRLRERGQLDPEKLDAFSRLLDVGRVTHCLYKDSERILGNTFGMCILQDFEALTPNLLARTIETVEGGGLVVLILRSLTSLTSLCTMVMDVHDRFRTESHSEAAGRFNERFLLSLASCKACVVMDDELNILPLSSHIRSITQVPTEKDSEGLSEAERDLKSLKEDLSDDFPVGPLIKKCCTLDQGKAVVTFFDAILDKALRSIVALIASRGRGKSAALGLAVAGAVAAGYSNIYITAPSPDNLKTFFEFVCKGFDALEYKEHLDYDVVKSANPDFKKAVVRINIFKQHRQTIQYIQPHEHEKLSQVELLVIDEAAAIPLPVVKSLLGPYLVFLSSTVSGYEGTGRSLSLKLLQQLDEQSRAPATGLEGSGCLFKKIELTESIRYGSGDPIESWLNGLLCLDVATCLPNPACHPSPSQCDLYYVNRDTLFSYHKDSELFLQRMMALCVSSHYKNSPNDLQLLADAPAHHLFVLLGPVDESQNKIPDILCVIQVCLEGKISENSALQSLRDGHSPYGDQIPWKFCEQFRDTEFPGFSGARIVRIAVHPNAMKMGYGSAAVELLTRYFEGQIAPISEAEDKVDVEHAPIKVTEAAEKVSMLEEQVKPRTNLPPLLVPLHDRRPEKLHYIGVSFGLTLDLFRFWRKHNFAPFYVSQIPSAVTGEHTCMLLKPLKNDELEVNESDELGFFTPFYKDFKIRFSKLLSDKFKKMDYKLAMSVLNPKINFAEVDSSGSSSGGFLKTLNGILSPYDMERLRAYTENLTDFNLVYDICKTLAHQYFEEKLPVSLSYVQASILLCLGLQETDFSSIERQMQLERGQIHSLLLKVARELYKYLNGVAGKEIKSALPRLKERELTAHNVSVDDDIREGAKQVEEQMKKEKIEGLMDSELQQYVIGDKEAEALQHSKISSSGIISVKSTKSENENGFDKSTKKRSSDKRSSSSSKSKSSKKRKSLKE
B4: RNA cyclase family protein (protein, UniProt Q9C578 1-375)
chain: MVMMKKMKGSQSFRQRLLLSTLSSTPISIDEIRADETIPGLRPHEVNLLRLLEIVTDDAVVDINETGTRLKYKPGTIVGGKNLVHSCSLSRSIGYYLEPLLLLGLFGKKPLSIRLKGITNDPRDASVDTFRSTTLNIIKRFGVPAEDLELKIEARGVAPNGGGEVLLTVPNIKTLSAVHWVEEGMVKKIRGTTFSTRVTSDFEHSMRFAARGIFNNLLPDVHIFQDHRAGAQAGKSPGYGISLAAETTTGCFISADTTVSCERPDETGELDVEKKERSPAEDTGVEVASWLLQEIEKGGVVDSTHQGLLFLLCALSEQDVSKVRVGTLSPYAVETLRNIKEFLGVKFAIKPDPLTGTVILKCTGSGLINLSRKLS
B5: Periodic tryptophan protein 2 (protein, UniProt Q8VYZ5 1-900)
chain: MEFRFENLLGAPYRGGNAVITKNTQLISPVGNRVSVTDLSKNHSVTLPLETSTNICRLASSPDGTFLLAVDEQNRCLFINLPRRVVLHRITFKDKVGALKFSPNGKFIAVGIGKLVEIWRSPGFRRAVLPFERVRTFANSDDKVVSLEWSLDSDYLLVGSRDLAARLFCVRKLKGVLNKPFLFLGHRDSVVGCFFGVDKMTNKVNRAFTIARDGYIFSWGYTEKDVKMDESEDGHSEPPSPVTPDRADEVMVENGGGVGTELKKRKEYDGKGLESDEEGDDDDEEYMHRGKWVLLRKDGCNQASAKVTACDYHQGLDMVVVGFSNGVFGLYQMPDFICIHLLSISRQKLTTAVFNERGNWLTFGCAKLGQLLVWDWRTETYILKQQGHYFDVNCVTYSPDSQLLATGADDNKVKVWNVMSGTCFITFTEHTNAVTALHFMADNHSLLSASLDGTVRAWDFKRYKNYKTYTTPTPRQFVSLTADPSGDVVCAGTLDSFEIFVWSKKTGQIKDILSGHEAPVHGLMFSPLTQLLASSSWDYTVRLWDVFASKGTVETFRHNHDVLTVAFRPDGKQLASSTLDGQINFWDTIEGVLMYTIEGRRDIAGGRVMTDRRSAANSSSGKCFTTLCYSADGGYILAAGTSRYICMYDIADQVLLRRFQISHNLSLDGVLDFLHSKKMTEAGPIDLIDDDNSDEEGGIDKQSRGNLGYDLPGSRPNRGRPIIRTKSLSIAPTGRSFAAATTEGVLIFSIDDTFIFDPTDLDIDVTPEAVEAAIEEDEVSRALALSMRLNEDSLIKKCIFAVAPADIKAVAISVRQKYLERLMEALVDLLENCPHLEFILHWCQEICKAHGSSIQRNYRTLLPALRSLQKAITRAHQDLADMCSSNEYTLRYLCSVPNNH

These are yes or no findings as the source states them, for the method shown. Binding seen in cells or lysates may run through a third protein. These calls come from enrichment with a bait or labelling near it, and not all partners need be listed. Sequences can lack the tags named with a protein.

The assay addresses T1, AtMTR4-GFP (Arabidopsis thaliana). Briefly: affinity purification with mass spectrometry; AtMTR4-GFP (own promoter, mtr4 background) extracted from flowers, held on anti-GFP magnetic microparticles (MACS), SDS omitted from washing buffers; LC-MS/MS; triplicates crossed, proteins of mock IPs excluded.
With YAOZHE (from UniProt Q9M0V4), the binding entry was “binds”.

For BMS1 domain protein, the binding result was “binds”.

With “IMP4, putative U3 small nucleolar ribonucleoprotein (from UniProt Q9S826)”, the binding entry is reported as “binds”.

Turning to “NONSENSE-MEDIATED MRNA DECAY 3 (from UniProt Q9SI58)”, the binding entry is given as “binds”.

Consider “nucleolar essential protein-related, EMG1/NEP1 domain (from UniProt Q9M1J8)”, for which the binding entry was “binds”.

For the molecule “contains small-subunit processome Utp12 domain (AT1G15420)”, the binding result was “binds”.

On to “U3 small nucleolar RNA-associated protein 10 domain (from UniProt Q9C8Z4 1-2197)”, for which the binding result is reported as “binds”.

With “WD-40 repeat protein (AT4G28450) (from UniProt F4JL99)”, the binding entry is “binds”.

With “Transducin/WD40 repeat protein (AT3G10530) (from UniProt Q9LPP3)”, the binding result is recorded as “binds”.

Turning to Nop14-like protein, the binding result was “binds”.

Regarding “Fcf2 pre-rRNA processing protein (from UniProt F4KCY1)”, the binding result is given as “binds”.

For B1, the binding entry is listed as “binds”.

B2: the binding entry is “binds”.

In the case of B3, the binding result is “binds”.

In the case of B4, the binding entry is on record as “binds”.

Take B5: the binding entry is reported as “binds”.

For the origin of these results see publication PMC4140647.
